{"source": "patent US11185075B2", "about": "“Herbicidal phenyltriazolinones” (BASF SE, priority 2016, dated 2021)", "assay_in_all_cases": "greenhouse post-emergence herbicidal test", "format_in_all_cases": "in vivo", "conditions_in_all_cases": "16 g/ha, scale from 0 to 100", "key": {"Echinocloa crus-galli": {"test_system": "Echinocloa crus-galli"}, "Setaria viridis": {"test_system": "Setaria viridis"}, "Amaranthus retroflexus": {"test_system": "Amaranthus retroflexus"}, "Chenopodium album": {"test_system": "Chenopodium album"}}, "note": "Some of these results come from one statement about several compounds together.", "data": [{"compound": "CCOC(=O)COc1ccccc1Oc1cc(-n2nc(C)n(C(F)F)c2=O)c(F)cc1Cl", "note": "[Example 3, Ethyl 2-[2-[2-chloro-5-[4-(difluoromethyl)-3-methyl-5-oxo-1,2,4-triazol-1-yl]-4-fluoro-phenoxy]phenoxy]acetate]", "values": [{"measurement": "herbicidal activity against ECHCG", "setting": "Echinocloa crus-galli", "value": "very good herbicidal activity (a very good herbicidal activity is given at values of at least 85)"}, {"measurement": "herbicidal activity against SETVI", "setting": "Setaria viridis", "value": "very good herbicidal activity (a very good herbicidal activity is given at values of at least 85)"}, {"measurement": "herbicidal activity against AMARE", "setting": "Amaranthus retroflexus", "value": "very good herbicidal activity (a very good herbicidal activity is given at values of at least 85)"}, {"measurement": "herbicidal activity against CHEAL", "setting": "Chenopodium album", "value": "very good herbicidal activity (a very good herbicidal activity is given at values of at least 85)"}]}, {"compound": "CCOC(=O)COc1ncccc1Oc1cc(-n2nc(C)n(C(F)F)c2=O)c(F)cc1Cl", "note": "[Example 6, Ethyl 2-[[3-[2-chloro-5-[4-(difluoromethyl)-3-methyl-5-oxo-1,2,4-triazol-1-yl]-4-fluoro-phenoxy]-2-pyridyl]oxy]acetate]", "values": [{"measurement": "herbicidal activity against ECHCG", "setting": "Echinocloa crus-galli", "value": "very good herbicidal activity (a very good herbicidal activity is given at values of at least 85)"}, {"measurement": "herbicidal activity against SETVI", "setting": "Setaria viridis", "value": "very good herbicidal activity (a very good herbicidal activity is given at values of at least 85)"}, {"measurement": "herbicidal activity against AMARE", "setting": "Amaranthus retroflexus", "value": "very good herbicidal activity (a very good herbicidal activity is given at values of at least 85)"}, {"measurement": "herbicidal activity against CHEAL", "setting": "Chenopodium album", "value": "very good herbicidal activity (a very good herbicidal activity is given at values of at least 85)"}]}, {"compound": "CCOC(=O)COc1ccccc1Oc1cc(-n2nc(C)n(C(F)F)c2=O)c(Cl)cc1Cl", "note": "[Example 8]", "values": [{"measurement": "herbicidal activity against ECHCG", "setting": "Echinocloa crus-galli", "value": "very good herbicidal activity (a very good herbicidal activity is given at values of at least 85)"}, {"measurement": "herbicidal activity against SETVI", "setting": "Setaria viridis", "value": "very good herbicidal activity (a very good herbicidal activity is given at values of at least 85)"}, {"measurement": "herbicidal activity against AMARE", "setting": "Amaranthus retroflexus", "value": "very good herbicidal activity (a very good herbicidal activity is given at values of at least 85)"}, {"measurement": "herbicidal activity against CHEAL", "setting": "Chenopodium album", "value": "very good herbicidal activity (a very good herbicidal activity is given at values of at least 85)"}]}, {"compound": "CCOC(=O)COc1ncccc1Oc1cc(-n2nc(C)n(C(F)F)c2=O)c(Cl)cc1Cl", "note": "[Example 11]", "values": [{"measurement": "herbicidal activity against ECHCG", "setting": "Echinocloa crus-galli", "value": "very good herbicidal activity (a very good herbicidal activity is given at values of at least 85)"}, {"measurement": "herbicidal activity against SETVI", "setting": "Setaria viridis", "value": "very good herbicidal activity (a very good herbicidal activity is given at values of at least 85)"}, {"measurement": "herbicidal activity against AMARE", "setting": "Amaranthus retroflexus", "value": "very good herbicidal activity (a very good herbicidal activity is given at values of at least 85)"}, {"measurement": "herbicidal activity against CHEAL", "setting": "Chenopodium album", "value": "very good herbicidal activity (a very good herbicidal activity is given at values of at least 85)"}]}]}
